Reference: patent publication US9174983B2, “Pyrroloquinoline quinone disodium salt crystal and method for producing the same” (MITSUBISHI GAS CHEMICAL COMPANY, INC., priority 2011, dated 2015)
Some results were stated once for a whole list of compounds, not compound by compound.

Experiment: Dispersibility test of PQQ disodium crystals in soybean oil (precipitation time)
Assay type: physicochemical
Conditions: relative to precursor crystal, from Table 1
Text: In this example, the PQQ disodium crystal in Crystalline Form 1 and Crystalline Form 2 was compared in dispersibility in edible oils with the conventional crystals.
After drying, the pressure in the vessel was returned to atmospheric pressure, and immediately the glass vessel was closed with a lid. […] After drying, the temperature within the flask was reduced to room temperature with nitrogen gas refluxed.
Then, they were allowed to stand still at room temperature, and the time period until all of the crystals floating on the soybean oil were precipitated to the bottom of the vessel was measured, which was used as an index of dispersibility for each crystal.

For “pyrroloquinoline quinone disodium crystal [Crystalline Form 1]”, the “dispersibility in edible oils and fats, higher than that of the precursor crystal” value was no less than 50 times.
For “pyrroloquinoline quinone disodium crystal [Crystalline Form 2]”, the “dispersibility in edible oils and fats, higher than that of the precursor crystal” value was no less than 50 times.
